We go through one molecule from publication PMC6558007.

For the assay, the target named is HaGland5-FLAG (Heterodera avenae). Kind of assay: affinity purification with mass spectrometry; whole protein of 14-day transgenic A. thaliana seedlings expressing HaGland5-FLAG (Col-0 as control); complexes captured by FLAG antibody; Q Exactive.

Results are given in words; binding and its absence hold for the method and conditions named. In cells and extracts the contact can be indirect. A yes stands for co-enrichment or nearness to the bait. Other partners may have been found.

B1: AtEMB3003 protein from A. thaliana (endogenous) (protein, UniProt Q9C8P0 32-465)
chain: IIPIQAKIREIFMPALSSTMTEGKIVSWVKSEGDKLNKGESVVVVESDKADMDVETFYDGYLAAIMVEEGGVAPVGSAIALLAETEDEIADAKAKASGGGGGGDSKAPPASPPTAAVEAPVSVEKKVAAAPVSIKAVAASAVHPASEGGKRIVASPYAKKLAKELKVELAGLVGSGPMGRIVAKDVEAVAAGGGVQAAVAVKEVVAAPGVELGSVVPFTTMQGAVSRNMVESLGVPTFRVGYTISTDALDALYKKIKSKGVTMTALLAKATALALAKHPVVNSSCRDGNSFVYNSSINVAVAVAIDGGLITPVLQNADKVDIYSLSRKWKELVDKARAKQLQPQEYNTGTFTLSNLGMFGVDRFDAILPPGTGAIMAVGASQPSVVATKDGRIGMKNQMQVNVTADHRVIYGADLAQFLQTLASIIEDPKDLTF
B1: the binding entry was “binds”.
